# Source: patent US20230338574A1, “ANTIBODY-NANOPARTICLE COMPLEXES AND METHODS FOR MAKING AND USING THE SAME” (priority 2020, published 2023)
# The chains behind the UniProt entries cited, without tags or fusion partners. Residues count along the entry.
# UniProt P02768, residues 25-609: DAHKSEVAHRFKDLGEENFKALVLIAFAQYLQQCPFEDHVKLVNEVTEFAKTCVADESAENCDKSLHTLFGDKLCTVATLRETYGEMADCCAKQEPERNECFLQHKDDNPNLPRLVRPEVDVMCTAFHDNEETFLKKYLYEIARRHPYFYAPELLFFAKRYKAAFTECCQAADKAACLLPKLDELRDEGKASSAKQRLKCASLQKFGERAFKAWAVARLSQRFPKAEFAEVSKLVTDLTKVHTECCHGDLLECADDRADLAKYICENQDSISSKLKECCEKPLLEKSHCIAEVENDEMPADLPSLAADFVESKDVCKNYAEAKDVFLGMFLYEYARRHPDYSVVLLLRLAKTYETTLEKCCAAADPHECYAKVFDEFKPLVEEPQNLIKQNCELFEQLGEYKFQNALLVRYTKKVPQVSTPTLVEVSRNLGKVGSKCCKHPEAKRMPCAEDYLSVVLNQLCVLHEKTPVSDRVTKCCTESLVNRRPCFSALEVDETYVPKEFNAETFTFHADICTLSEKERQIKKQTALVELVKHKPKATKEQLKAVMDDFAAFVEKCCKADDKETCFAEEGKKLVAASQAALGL
# These are yes or no findings as the source states them, for the method shown. Some entries that bind do so weakly or less than the wild type.
# B1: anti-PDL1 H6B1L-EM antibody (STI3031) (antibody, human IgG1, lambda, V domains shown)
# VH: QMQLVQSGAEVKKPGSSVKVSCKASGGTFSSYAYSWVRQAPGQGLEWMGGIIPSFGTANYAQKFQGRVTITADESTSTAYMELSSLRSEDTAVYYCARGPIVATITPLDYWGQGTLVTVSS
# VL: SYVLTQPPSVSVAPGKTATIACGGENIGRKTVHWYQQKPGQAPVLVIYYDSDRPSGIPERFSGSNSGNTATLTISRVEAGDEADYYCLVWDSSSDHRIFGGGTKLTVLG
# notes: also called PDL1 antibody
# Biological target: ABX Nab (commercial ABRAXANE, albumin-bound paclitaxel nanoparticles) (human) (UniProt P02768)
# Assay: zeta potential (Zetasizer), ABX:STI3031 NIC against ABX Nab
binder,measurement,value
B1,binding,binds
